These are yes or no findings as the source states them, for the method shown. Binding seen in cells or lysates may run through a third protein. A yes stands for co-enrichment or nearness to the bait. Other partners may have been found. For part of these data: Tags and fused reporters may be left off the sequences shown.
Experiments:
[1] = biological target: stP8 (cTP8-2xStrep-HA-TurboID-PAP8) (Arabidopsis thaliana) (UniProt Q9XI19); assay: proximity labelling
[2] = biological target: T1, stλP8 (cTP8-2xStrep-HA-TurboID-A10 linker-PAP8) (Arabidopsis thaliana) (UniProt Q9XI19); assay: proximity labelling
T1 sequence: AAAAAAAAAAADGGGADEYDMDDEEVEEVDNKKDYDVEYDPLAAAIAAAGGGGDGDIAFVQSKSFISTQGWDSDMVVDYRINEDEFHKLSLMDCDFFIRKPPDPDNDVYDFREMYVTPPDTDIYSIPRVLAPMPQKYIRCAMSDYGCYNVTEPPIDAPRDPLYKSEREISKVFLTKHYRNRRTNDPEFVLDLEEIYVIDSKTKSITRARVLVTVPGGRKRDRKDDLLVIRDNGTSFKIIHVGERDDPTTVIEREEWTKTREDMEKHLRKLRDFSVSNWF

Sequences of proteins named here, by UniProt entry; tags and fusion partners are left off. Residues count along the entry.
UniProt Q9LJE4, residues 51-596: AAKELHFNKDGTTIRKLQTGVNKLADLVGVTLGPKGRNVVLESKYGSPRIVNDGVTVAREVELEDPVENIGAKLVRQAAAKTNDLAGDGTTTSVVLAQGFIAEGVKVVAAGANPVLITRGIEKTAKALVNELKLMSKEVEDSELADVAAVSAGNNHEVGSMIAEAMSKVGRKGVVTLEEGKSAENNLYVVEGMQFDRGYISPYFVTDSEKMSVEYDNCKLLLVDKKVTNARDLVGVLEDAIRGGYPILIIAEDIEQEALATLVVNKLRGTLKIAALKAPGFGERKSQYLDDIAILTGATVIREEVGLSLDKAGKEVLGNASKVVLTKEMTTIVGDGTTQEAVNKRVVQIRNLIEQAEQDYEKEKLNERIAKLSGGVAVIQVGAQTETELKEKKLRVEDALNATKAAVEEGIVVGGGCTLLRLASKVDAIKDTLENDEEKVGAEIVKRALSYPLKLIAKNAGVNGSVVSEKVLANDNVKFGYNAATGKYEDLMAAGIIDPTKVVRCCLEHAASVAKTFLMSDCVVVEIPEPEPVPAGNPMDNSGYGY
UniProt P17745, residues 68-476: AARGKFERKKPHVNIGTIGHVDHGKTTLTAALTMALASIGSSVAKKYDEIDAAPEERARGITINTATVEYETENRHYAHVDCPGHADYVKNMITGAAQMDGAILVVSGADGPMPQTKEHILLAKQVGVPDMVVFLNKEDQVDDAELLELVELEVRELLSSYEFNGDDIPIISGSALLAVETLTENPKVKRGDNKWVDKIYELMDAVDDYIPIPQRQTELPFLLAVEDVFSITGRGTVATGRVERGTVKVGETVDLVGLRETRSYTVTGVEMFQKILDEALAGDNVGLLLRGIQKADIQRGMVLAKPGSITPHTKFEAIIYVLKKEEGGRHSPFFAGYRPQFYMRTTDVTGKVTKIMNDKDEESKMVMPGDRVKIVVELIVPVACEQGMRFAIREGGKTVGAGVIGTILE

[3] = biological target: T2, sP8 (cTP8-2xStrep-PAP8) (Arabidopsis thaliana) (UniProt Q9XI19); assay: affinity purification with mass spectrometry
T2 sequence: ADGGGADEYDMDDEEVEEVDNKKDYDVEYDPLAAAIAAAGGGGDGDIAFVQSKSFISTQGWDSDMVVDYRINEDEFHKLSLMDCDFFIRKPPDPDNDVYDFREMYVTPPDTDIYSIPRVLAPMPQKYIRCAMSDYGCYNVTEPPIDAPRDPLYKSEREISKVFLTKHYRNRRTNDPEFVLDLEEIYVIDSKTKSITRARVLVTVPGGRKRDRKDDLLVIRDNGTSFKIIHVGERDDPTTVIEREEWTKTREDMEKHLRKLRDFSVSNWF

[4] = biological target: stP8 (cTP8-2xStrep-HA-TurboID-PAP8) (Arabidopsis thaliana) (UniProt Q9XI19); assay: affinity purification with mass spectrometry
[5] = biological target: T1, stλP8 (cTP8-2xStrep-HA-TurboID-A10 linker-PAP8) (Arabidopsis thaliana); assay: affinity purification with mass spectrometry

Measured: binding

CPN60b2 (from UniProt Q9LJE4 51-596)
binds: all assays above

AtRABE1B (from UniProt P17745 68-476)
binds: all assays above

NusG/pTAC13 (Arabidopsis thaliana (endogenous))
binds: [2] | [3] | [5]

pTAC18 of Arabidopsis thaliana
binds: [2] | [3] | [5]

PAP1 of Arabidopsis thaliana
binds: [2] | [3] | [5]

B1: PAP7 of Arabidopsis thaliana (protein, UniProt Q84JF5 63-483)
chain: ASEESSSSELETADPDFYKIGYVRSVRAYGVEFKEGPDGFGVYASKDIEPRRRARVIMEIPLELMITIRQKHPWMFFPDIVPIGHPIFDIINSTDPEIDWDIRLACLLLFSFDRDDHFWRLYGDFLPAADECSSLLLATEEDLAELQDPDLVSTIRQQQKRILDFWEKNWHSGVPLKIKRLAEDPERFIWAVSMAQTRCISMQTRVGALVQELNMMIPYADMLNHSFEPNCFLHWRPKDRMLEVMSNAGQDIKKGEEMTINYMPGQKNNMLMERYGFSTPVNPWDAIKFSGDSRIHLNSFLSVFNIYGLPEEYYHDSELSRGDTFVDGAVIAAARTLPTWSDIDLPPIPSAERKAVKELQDECRKMLAEYPTTAEQDQKLLDSMSEARTTFATAVKYRMHRKMFIGKIIKALDIYQERLLY
binds: all assays above

B2: PAP9 of Arabidopsis thaliana (protein, UniProt Q9LU64 47-305)
chain: GVITAGFELKPPPYPLDALEPHMSRETLDYHWGKHHKTYVENLNKQILGTDLDALSLEEVVLLSYNKGNMLPAFNNAAQAWNHEFFWESIQPGGGGKPTGELLRLIERDFGSFEEFLERFKSAAASNFGSGWTWLAYKANRLDVANAVNPLPKEEDKKLVIVKTPNAVNPLVWDYSPLLTIDTWEHAYYLDFENRRAEYINTFMEKLVSWETVSTRLESAIARAVQREQEGTETEDEENPDDEVPEVYLDSDIDVSEVD
binds: all assays above

B3: PAP10 (thioredoxin-z) of Arabidopsis thaliana (protein, UniProt Q9M7X9 82-183)
chain: AQELQELVKGDRKVPLIVDFYATWCGPCILMAQELEMLAVEYESNAIIVKVDTDDEYEFARDMQVRGLPTLFFISPDPSKDAIRTEGLIPLQMMHDIIDNEM
binds: all assays above

B4: PAP11 of Arabidopsis thaliana (protein, UniProt F4I3P9 41-772)
chain: AAGPARRNSYPNPADDDPPEAPEDSMHGVSKFQQIQRQAARARKLEEEDFEKNRNTYLSAIADVEDAAETGRDDEESGGDLFSDIDRAISMKRSEFVKQGLLKPNPPKTASLKKIGEEGNEEEGDVTDDVDELDEEEVVDLDEIDKLTGLTEISDEEDWVDEEGNTRINKKKEFGSDHQFEFDLDDFGESKARIVEPKFKMCLAELLDESKVVPISVYGDLDVEITGIQHDSRGVSAGDLFVCCLGSENFLSEADKRGAVAVVASKEIDIEDTLGCRALVIVEDTNAVLAALASSFYRHPSKNMSVIGVTGTDGKTTTTYLIKSLYEAMGVRTGMFSTVSCYIHGDNKLDTPNATMNPDAVLVQSLMAKMLHNGTESLVMEASPQELALGKCDEVDFDIAVFTNLTRENTDFRGTDEEYRDAEAKLFSRMVDPERHRKVVNIDDPNAAFFVQQGNPNVPVVTFAMENTKADVHPLKFELSLFETQVLVNTPQGILEISSGLLGRHNIYNILAAVAVGIAVGAPLEDIVRGVEEVDAVPGRCELIDEEQAFGVIVDHANTPDGLSRLLDSIRELKPRRIITVIGCEGENERGKRPLMTKIATEKSDVTMLTSDNPRNEDPLDILDDMLSGIGWTMQEYLKHGEHDYYPPLANGHRLFLHDIRRVAVRCAVAMGEEGDMVVVAGKGHEAYQLEGEKKEFYDDREECREALQYVDELHQAGIDTSEFPWRLPESH
binds: all assays above

B5: PAP12 of Arabidopsis thaliana (protein, UniProt Q8VZV9 33-161)
chain: CGIQRDDNGRRVWRRRTLTKKDDMLRYKMQRVPFVEEQVRKIREVGKVMTMDIEQLLLREDNRFEFVNSVAAEATEYVDKNRDEYGGSKKAIFHVLSNRVNDLGFDRPEAYVEADPYKPGPGYLLEYYT
binds: all assays above

B6: FLN2 of Arabidopsis thaliana (protein, UniProt F4I0K2 45-614)
chain: AAGRRKLSESAPLEEEGNDGNGAVVGKKPSKSVKRTTKKKVVVKDEPLEEISEFLVDNDDVLDKESIVSALKPKKTRTRKKAAAASSDVEEVKTEKKVRRKRTVKKDKDVEDDLATIMDAEVSDVEEALAVESTDTESEEEEIDLSKHEGEDISHTYGWPPLVCCFGSAQHAFVPSGRPANRLLDYELHERMRDAKWAPEKYIRAPGGCAGGVAIALASLGGKVAFMGKLGADDYGQAMLYYLNVCKVQTRSVKIDGKRVTACSTMKISKRGRLKSTCIKPCAEDSLSKSEINVDVLKEAKMFYFSTHSLLDKKMMSTTIQAIKISKQLGNVIFYDLNLPLPLWHSSEETKSFIQEVWNLADVIEITKQELEFLCGIEPTEEFDTENNDISKFVHYPPETVEQLWHENLKVLFVTNGTSKIHYYTKEHNGAVSGMEDVPITPFTRDMSASGDGIVAGLIRMLTVQPDLMNNKGYLERTARYAIECGIIDQWLLAQTRGYPPKDDMEEEEDDEEEDEVESDPNGIRSITEKEYRTSKPYDEPDGPYVMKPVEEREYKKLELVGSMFEDGSL
binds: all assays above

B7: PRIN2 of Arabidopsis thaliana (protein, UniProt Q9XIK0 70-179)
chain: AAEYKFPDPIPEFAEAETEKFRDHMLNKLSKRDLFEDSVDEIVGVCTEIFETFLRSEYGGPGTLLVIPFIDMADTLNERELPGGPQAARAAIKWAQDHVDKDWKEWTGTD
binds: all assays above

B8: LIN2 (protein, UniProt Q9LR75 49-386)
chain: VSIEKEVPETERPFTFLRDSDDVTPSSSSSSVRARFETMIRAAQDSVCDAIEAIEGGPKFKEDVWSRPGGGGGISRVLQDGNVFEKAGVNVSVVYGVMPPEAYRAAKGSASDQKPGPVPFFAAGVSSVLHPKNPFAPTLHFNYRYFETDAPKDVPGAPRQWWFGGGTDFTPAYIFEEDVKHFHSIQKQACDKFDPSFYPRFKKWCDDYFYIKHRDERRGLGGIFFDDLNDYDQEMLLSFATECANSVVPAYIPIVEKRKDMEFTEQHKAWQQLRRGRYVEFNLVYDRGTTFGLKTGGRIESILVSLPLSARWEYDHKPEEGTEEWKLLDACINPKEWI
not listed: [3]
binds: all other assays above

B9: AT-Hook (AT1G48610) (protein, UniProt Q94AD1 1-212)
chain: MAKTALTPPASGSEVPRSGTPGDASGNKPQTDATGVSATDTASQKRGRGRPPKAKSDSSQIGAVSAKASTKPSGRPKRNVAQAVPSTSVAAAVKKRGRAKRSTVTAAVVTTATGEGSRKRGRPKKDDVAAATVPAETVVAPAKRRGRKPTVEVAAQPVRRTRKSTSVAPVAANVGDLKKRTALLQKKVKEAAAKLKQAVTAIDEVQKLADGM
not listed: [3]
binds: all other assays above

B10: CSP41b (protein, UniProt Q9SA52 51-378)
chain: SSEKKILIMGGTRFIGLFLSRILVKEGHQVTLFTRGKSPIAKQLPGESDQDFADFSSKILHLKGDRKDYDFVKSSLSAEGFDVVYDINGREAEEVEPILEALPKLEQYIYCSSAGVYLKSDILPHCEEDAVDPKSRHKGKLETESLLQSKGVNWTSIRPVYIYGPLNYNPVEEWFFHRLKAGRPIPVPNSGIQISQLGHVKDLATAFLNVLGNEKASREIFNISGEKYVTFDGLAKACAKAGGFPEPEIVHYNPKEFDFGKKKAFPFRDQHFFASVEKAKHVLGWKPEFDLVEGLTDSYNLDFGRGTFRKEADFTTDDMILSKKLVLQ
binds: [3]

Source: publication doi:10.1101/2024.10.25.620210
